PubChem BioAssay AID504784, Drosophila RNAi Screening Center | 2011

Test: 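Fly genes whose silencing alters how much lipid cells keep in droplets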 (primary screen)
Cells: Drosophila Kc167 embryonic cells
Knock-down reagent: long dsRNA against Drosophila genes, about 250 ng dsRNA per well
Timing: 4 days
Conditions: cells fed 400 µM oleic acid bound to BSA
Read-out: 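Cells imaged and segmented; ratio of lipid droplet area to nuclear area, log-transformed, then normalised as a B-score over the screen; higher means more stored lipid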
Reading the numbers: droplet/nuclear area B-score: higher = more stored lipid (overstorage)
The deposit covers about 17,000 reagents; this is a random part of those with a known target gene and a result. 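Each column is one replicate's B-score; the combined score over replicates was not deposited, so single values may mislead.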 Names joined by + are all predicted targets of the reagent. Further read-outs or replicates are left out here. No sequences are given here.

CG4676 [DRSC06879]
- droplet/nuclear area B-score, replicate 1: -0.0132

CG34347 [DRSC14305]
- droplet/nuclear area B-score, replicate 1: -0.201

CG34347 [DRSC15104]
- droplet/nuclear area B-score, replicate 1: -0.45

CG34347 [DRSC15105]
- droplet/nuclear area B-score, replicate 1: -1.18

CG34347 [DRSC23044]
- droplet/nuclear area B-score, replicate 1: -0.0255

ZnT49B [DRSC07225]
- droplet/nuclear area B-score, replicate 1: -0.901

CG14883 [DRSC15007]
- droplet/nuclear area B-score, replicate 1: -0.375

CG15141 [DRSC02441]
- droplet/nuclear area B-score, replicate 1: 0.235

CG15141 [DRSC02442]
- droplet/nuclear area B-score, replicate 1: -1.58

Gr59d [DRSC22553]
- droplet/nuclear area B-score, replicate 1: 0.376

CG3457 [DRSC18509]
- droplet/nuclear area B-score, replicate 1: 2.31

Kdsr [DRSC14245]
- droplet/nuclear area B-score, replicate 1: 0.755

MESR3 [DRSC02463]
- droplet/nuclear area B-score, replicate 1: 0.282

CG44838 [DRSC10330]
- droplet/nuclear area B-score, replicate 1: -2

CG44838 [DRSC10371]
- droplet/nuclear area B-score, replicate 1: -0.828

CG43897 [DRSC10965]
- droplet/nuclear area B-score, replicate 1: -0.417

CG43897 [DRSC10967]
- droplet/nuclear area B-score, replicate 1: 0.16

CG43897 [DRSC21583]
- droplet/nuclear area B-score, replicate 1: 1.49

CG5742 [DRSC06949]
- droplet/nuclear area B-score, replicate 1: -1.08

Tim10 + CG42497 [DRSC04664]
- droplet/nuclear area B-score, replicate 1: 0.854

S2P [DRSC07311]
- droplet/nuclear area B-score, replicate 1: 0.81

eater [DRSC15969]
- droplet/nuclear area B-score, replicate 1: -0.403

eater [DRSC22254]
- droplet/nuclear area B-score, replicate 1: 0.0246

Pex14 [DRSC11754]
- droplet/nuclear area B-score, replicate 1: -1.08

Gen [DRSC09679]
- droplet/nuclear area B-score, replicate 1: -0.62

5 successive entries from above, quoted:
CG44838 [DRSC10330]
- droplet/nuclear area B-score, replicate 1: -2

CG44838 [DRSC10371]
- droplet/nuclear area B-score, replicate 1: -0.828

CG43897 [DRSC10965]
- droplet/nuclear area B-score, replicate 1: -0.417

CG43897 [DRSC10967]
- droplet/nuclear area B-score, replicate 1: 0.16

CG43897 [DRSC21583]
- droplet/nuclear area B-score, replicate 1: 1.49

Additional reagents follow:
CG30380 [DRSC05069]
- droplet/nuclear area B-score, replicate 1: -1.7

lncRNA:CR32661 [DRSC19794]
- droplet/nuclear area B-score, replicate 1: -0.614

her [DRSC03543]
- droplet/nuclear area B-score, replicate 1: -0.811

CG13064 [DRSC09947]
- droplet/nuclear area B-score, replicate 1: -0.236

Jon65Aiii [DRSC10649]
- droplet/nuclear area B-score, replicate 1: 0.4

CG10116 [DRSC09700]
- droplet/nuclear area B-score, replicate 1: 0.554

swi2 [DRSC06457]
- droplet/nuclear area B-score, replicate 1: 1.22

CG10621 [DRSC02078]
- droplet/nuclear area B-score, replicate 1: -0.674

fid [DRSC14885]
- droplet/nuclear area B-score, replicate 1: 2.48

fid [DRSC16464]
- droplet/nuclear area B-score, replicate 1: -0.68

CG13426 [DRSC06388]
- droplet/nuclear area B-score, replicate 1: 1.19

Dsk [DRSC12347]
- droplet/nuclear area B-score, replicate 1: -0.912

NimB1 [DRSC01880]
- droplet/nuclear area B-score, replicate 1: 0.448

CG14929 + CG4970 + CG14930 [DRSC02412]
- droplet/nuclear area B-score, replicate 1: 0.926

gol [DRSC04689]
- droplet/nuclear area B-score, replicate 1: -0.788
